In patent publication US20180355061A1:
No constants are given. Whether binding was seen depends on the method and setting. Some results given as binding are weak or reduced against the parent protein; the word gives no strength.

Amino acid sequences for entries named in this document (tags omitted). A change or cut given only in a name is not applied to a line headed by its entry.
UniProt Q15116: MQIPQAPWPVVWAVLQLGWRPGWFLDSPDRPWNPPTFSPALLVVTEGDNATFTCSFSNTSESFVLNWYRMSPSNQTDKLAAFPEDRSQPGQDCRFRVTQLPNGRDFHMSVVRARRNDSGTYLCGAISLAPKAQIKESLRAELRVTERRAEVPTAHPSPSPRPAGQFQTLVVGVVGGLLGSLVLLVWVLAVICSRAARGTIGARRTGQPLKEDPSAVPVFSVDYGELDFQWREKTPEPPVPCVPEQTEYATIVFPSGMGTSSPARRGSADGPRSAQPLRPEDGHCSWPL

Columns and labels:
[1] = target: human PD-1 expressed on cells (human) (UniProt Q15116); test: flow cytometry cell clustering of PD-L2-HEK cells with PD-1-HEK cells, % double positive events
[2] = target: human PD-1 expressed on cells (human) (UniProt Q15116); test: flow cytometry cell clustering of PD-L1-HEK cells with PD-1-HEK cells, % double positive events

binding [1] | binding [2] | Substance
binds |  | cynomolgus monkey PD-L2 on HEK cells (from UniProt A0A2K5U5Z4 20-273) (ligand)
 | binds | cynomolgus monkey PD-L1 on HEK cells (from UniProt G7PSE7 19-290) (ligand)
